Data as given in publication PMC9925306.
Where two headings read alike, the source gives them in different places. Results are given in words; binding and its absence hold for the method and conditions named. In cells and extracts the contact can be indirect. Some results given as binding are weak or reduced against the parent protein; the word gives no strength. For some assays here: Sequences can lack the tags named with a protein.

Amino acid sequences for entries named in this document (tags omitted).
UniProt P03126: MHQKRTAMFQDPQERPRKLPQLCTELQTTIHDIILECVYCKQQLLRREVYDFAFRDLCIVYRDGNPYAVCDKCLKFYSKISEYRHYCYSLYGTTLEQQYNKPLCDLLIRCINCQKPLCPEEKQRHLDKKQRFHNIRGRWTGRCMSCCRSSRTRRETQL
UniProt P03129: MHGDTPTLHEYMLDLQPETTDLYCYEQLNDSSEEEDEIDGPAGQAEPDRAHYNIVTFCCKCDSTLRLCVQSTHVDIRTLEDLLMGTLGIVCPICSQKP
UniProt P06788: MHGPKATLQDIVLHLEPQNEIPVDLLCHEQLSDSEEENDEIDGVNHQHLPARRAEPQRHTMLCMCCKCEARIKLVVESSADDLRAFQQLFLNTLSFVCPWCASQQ
UniProt P06463: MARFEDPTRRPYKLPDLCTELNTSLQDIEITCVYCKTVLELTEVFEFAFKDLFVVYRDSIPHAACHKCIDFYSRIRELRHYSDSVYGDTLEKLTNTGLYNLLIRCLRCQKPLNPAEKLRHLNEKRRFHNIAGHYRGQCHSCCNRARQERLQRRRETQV
UniProt P19447: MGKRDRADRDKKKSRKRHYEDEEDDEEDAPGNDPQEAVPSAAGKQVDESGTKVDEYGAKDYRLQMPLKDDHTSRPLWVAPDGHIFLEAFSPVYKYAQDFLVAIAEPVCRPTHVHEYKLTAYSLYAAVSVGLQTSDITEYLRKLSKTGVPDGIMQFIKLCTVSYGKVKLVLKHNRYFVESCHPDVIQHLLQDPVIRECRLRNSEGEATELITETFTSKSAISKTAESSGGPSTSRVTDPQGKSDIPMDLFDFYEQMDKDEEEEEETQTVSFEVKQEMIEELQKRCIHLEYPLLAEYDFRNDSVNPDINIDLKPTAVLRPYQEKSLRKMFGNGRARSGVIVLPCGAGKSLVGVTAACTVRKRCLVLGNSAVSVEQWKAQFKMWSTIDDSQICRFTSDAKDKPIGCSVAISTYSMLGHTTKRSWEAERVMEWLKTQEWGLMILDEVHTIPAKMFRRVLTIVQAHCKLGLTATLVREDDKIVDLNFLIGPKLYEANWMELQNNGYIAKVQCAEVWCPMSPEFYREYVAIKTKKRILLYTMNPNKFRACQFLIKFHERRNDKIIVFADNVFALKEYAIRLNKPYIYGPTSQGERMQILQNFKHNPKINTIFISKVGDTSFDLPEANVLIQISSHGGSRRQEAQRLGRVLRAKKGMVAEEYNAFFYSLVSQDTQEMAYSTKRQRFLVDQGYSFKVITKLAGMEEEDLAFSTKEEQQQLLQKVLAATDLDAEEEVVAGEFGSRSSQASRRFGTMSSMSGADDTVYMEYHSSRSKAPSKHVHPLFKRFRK

Columns and labels:
[1] = target: 3xFLAG-HPV16 E6 (HPV16) (UniProt P03126); assay: co-IP; HEK-293T co-transfected with pCineo-3xFLAG HPV16 E6 or E7 and pSpica-N1 (Gluc1 fusion); lysis in 50 mM Tris-HCl pH7.4, 150 mM NaCl, 1 mM EDTA, 1% Triton X-100; anti-Flag M2 magnetic beads overnight; blot with anti-Gaussia luciferase antibody
[2] = target: 3xFLAG-HPV16 E7 (HPV16) (UniProt P03129); assay: as above
[3] = target: Gluc2-HPV16 E7 (HPV16) (UniProt P03129); assay: split reporter; Gaussia princeps luciferase complementation assay (GPCA): HEK-293T co-transfected with 100 ng pSpica-N2-HPV E6 or E7 (Gluc2) and 100 ng pSpica-N1 (Gluc1, DNA repair library); 24 h, Renilla lysis buffer 30 min at room temperature, luminescence as RLU or normalized luminescence ratio (NLR)
[4] = target: Gluc2-HPV39 E6 (HPV39) (UniProt P24835); assay: as above
[5] = target: Gluc2-HPV16 E6 (HPV16) (UniProt P03126); assay: as above
[6] = target: T1, Gluc2-HPV33 E7 (HPV33) (UniProt P06429); assay: as above
T1 sequence: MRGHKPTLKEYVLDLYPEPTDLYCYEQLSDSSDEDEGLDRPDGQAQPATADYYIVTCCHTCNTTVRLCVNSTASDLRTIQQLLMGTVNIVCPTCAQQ

[7] = target: Gluc2-HPV18 E7 (HPV18) (UniProt P06788); assay: as above
[8] = target: Gluc2-HPV33 E6 (HPV33) (UniProt P06427); assay: as above
[9] = target: T2, Gluc2-HPV39 E7 (HPV39) (UniProt P24837); assay: as above
T2 sequence: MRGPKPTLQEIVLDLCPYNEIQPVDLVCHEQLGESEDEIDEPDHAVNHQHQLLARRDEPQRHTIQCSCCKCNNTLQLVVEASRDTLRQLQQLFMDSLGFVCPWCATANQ

[10] = target: Gluc2-HPV18 E6 (HPV18) (UniProt P06463); assay: as above
[11] = target: Gluc2-HPV16 E7 (HPV16) (UniProt P03129); assay: as above; remark: listed apart in the source
[12] = target: T1, Gluc2-HPV33 E7 (HPV33); assay: as above; remark: listed apart in the source
[13] = target: Gluc2-HPV18 E7 (HPV18) (UniProt P06788); assay: as above; remark: listed apart in the source
[14] = target: T2, Gluc2-HPV39 E7 (HPV39); assay: as above; remark: listed apart in the source

Measured: binding

Gluc1-CHEK2 (from UniProt O96017 1-543)
binds: [1] | [2] | [3] | [4] | [5] | [6] | [7] | [8] | [9] | [10]

Gluc1-ERCC3 (from UniProt P19447 1-782)
binds: [1] | [2] | [3] | [4] | [5] | [6] | [7] | [8] | [9] | [10]

Gluc1-PNKP (from UniProt Q96T60 1-521)
binds: [2] | [3] | [6] | [7] | [9]

B1: Gluc1-PMS1 (protein, UniProt P54277 1-932)
chain: MKQLPAATVRLLSSSQIITSVVSVVKELIENSLDAGATSVDVKLENYGFDKIEVRDNGEGIKAVDAPVMAMKYYTSKINSHEDLENLTTYGFRGEALGSICCIAEVLITTRTAADNFSTQYVLDGSGHILSQKPSHLGQGTTVTALRLFKNLPVRKQFYSTAKKCKDEIKKIQDLLMSFGILKPDLRIVFVHNKAVIWQKSRVSDHKMALMSVLGTAVMNNMESFQYHSEESQIYLSGFLPKCDADHSFTSLSTPERSFIFINSRPVHQKDILKLIRHHYNLKCLKESTRLYPVFFLKIDVPTADVDVNLTPDKSQVLLQNKESVLIALENLMTTCYGPLPSTNSYENNKTDVSAADIVLSKTAETDVLFNKVESSGKNYSNVDTSVIPFQNDMHNDESGKNTDDCLNHQISIGDFGYGHCSSEISNIDKNTKNAFQDISMSNVSWENSQTEYSKTCFISSVKHTQSENGNKDHIDESGENEEEAGLENSSEISADEWSRGNILKNSVGENIEPVKILVPEKSLPCKVSNNNYPIPEQMNLNEDSCNKKSNVIDNKSGKVTAYDLLSNRVIKKPMSASALFVQDHRPQFLIENPKTSLEDATLQIEELWKTLSEEEKLKYEEKATKDLERYNSQMKRAIEQESQMSLKDGRKKIKPTSAWNLAQKHKLKTSLSNQPKLDELLQSQIEKRRSQNIKMVQIPFSMKNLKINFKKQNKVDLEEKDEPCLIHNLRFPDAWLMTSKTEVMLLNPYRVEEALLFKRLLENHKLPAEPLEKPIMLTESLFNGSHYLDVLYKMTADDQRYSGSTYLSDPRLTANGFKIKLIPGVSITENYLEIEGMANCLPFYGVADLKEILNAILNRNAKEVYECRPRKVISYLEGEAVRLSRQLPMYLSKEDIQDIIYRMKHQFGNEIKECVHGRPFFHHLTYLPETT
binds: [2] | [11] | [12] | [13] | [14]

B2: Gluc1-POLDIP2 (protein, UniProt Q9Y2S7 52-368)
chain: SSRNRPEGKVLETVGVFEVPKQNGKYETGQLFLHSIFGYRGVVLFPWQARLYDRDVASAAPEKAENPAGHGSKEVKGKTHTYYQVLIDARDCPHISQRSQTEAVTFLANHDDSRALYAIPGLDYVSHEDILPYTSTDQVPIQHELFERFLLYDQTKAPPFVARETLRAWQEKNHPWLELSDVHRETTENIRVTVIPFYMGMREAQNSHVYWWRYCIRLENLDSDVVQLRERHWRIFSLSGTLETVRGRGVVGREPVLSKEQPAFQYSSHVSLQASSGHMWGTFRFERPDGSHFDVRIPPFSLESNKDEKTPPSGLHW
binds: [2] | [11] | [12] | [13] | [14]
